# Experimental data taken from the supplement of paper PMC12889115.
# This is one part of the list. Values are raw readings; no control value is given beside them.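 Primary screen: polymyxin B was added at a level permeabilizing Salmonella outer membranes while sparing inner membranes. DMSO wells, both with and without polymyxin B, established maximum growth. Plate-to-plate variation meant each plate was ranked on its own, and the lowest-OD600 compounds were selected as hits.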
# System: Salmonella enterica serovar Typhimurium SL1344
# Assay: bacterial growth OD600 after 18 h with compound and polymyxin B; higher = more bacterial growth (less inhibition)
# Details: 50 µM, Mueller-Hinton broth
Compound,bacterial growth OD600 (polymyxin B 0.75 µg/mL),bacterial growth OD600 (polymyxin B 1 µg/mL)
O=C(CCc1ccccc1)N1CCCC(c2[nH]ncc2-c2ccc(F)c(F)c2)C1 (centres undefined),0.023,–
COCC1CCN(CC2(O)CCCN(Cc3ccc(F)cc3)C2=O)CC1 (centres undefined),–,1.02
Cc1nc(C(=O)N2CCC(C3(Cc4cccc(F)c4)NC(=O)N(CC(C)C)C3=O)CC2)cs1 (centres undefined),0.819,–
O=C(Cn1cc(NC(=O)COc2ccccc2)cn1)NCCc1ccco1,0.972,–
COC(=O)c1cc(CNC(=O)C2(c3ccccc3)CCCCC2)cc(NC(=O)c2cc(C)nn2C)c1,0.537,–
CC(C)CCC(=O)N1CCC(C2(Cc3ccc(F)cc3)NC(=O)N(CC3CCCO3)C2=O)CC1 (centres undefined),0.797,–
COc1ccc(CC2(CCC(=O)NCCc3ccc(Cl)cc3)CCC(=O)N2)c2ccccc12 (centres undefined),0.084,–
COCC(C)Nc1ccc(-c2nc(-c3cccc(OC)c3OC)no2)cn1 (centres undefined),0.775,–
CC(=O)C1CCCN(C(=O)c2cc(NS(=O)(=O)N(C)C)cc3nc(CC(C)C)n(C)c23)C1 (centres undefined),0.847,–
Cc1oc(-c2ccc(NC(=O)Cc3ccccc3)cc2)nc1CNC(=O)Cc1cccc2ccccc12,0.833,–
CCc1ccc(CN(C)C(=O)C2CCC(=O)N(CCCN3CCCC3=O)C2)cc1 (centres undefined),–,0.932
CCOC(=O)C1(Cc2cccc(OC)c2)CCCN(S(=O)(=O)c2cccs2)C1 (centres undefined),–,0.566
CCN1CCCC1CNC(=O)CCC1CCN(CCCC(F)(F)F)CC1 (centres undefined),–,1.17
CCOC(=O)C1(Cc2cccc(OC)c2)CCN(Cc2ccc(COC)o2)CC1,–,1.07
COc1ccc(F)c(CNC2COc3c(cccc3OC)C2)c1 (centres undefined),–,0.892
COc1ccccc1C(=O)Nc1cccc(N2CCC(NCc3ccccc3C)CC2)c1,0.794,–
COc1ccc(-c2nn(-c3ccccc3C)cc2CN(C)Cc2ccon2)cc1F,–,0.01
CC(=O)N1CCC[C@H]1C(=O)N1CCc2onc(-c3cccc4ccccc34)c2C1,–,0.905
O=C(CCC(F)(F)F)N1CCC2(CCCN(Cc3ccccc3F)C2=O)C1 (centres undefined),–,1.01

# A few values from the entries so far:
# For bacterial growth OD600 (polymyxin B 1 µg/mL), COCC1CCN(CC2(O)CCCN(Cc3ccc(F)cc3)C2=O)CC1 (centres undefined) is listed with 1.02
# For bacterial growth OD600 (polymyxin B 0.75 µg/mL), O=C(Cn1cc(NC(=O)COc2ccccc2)cn1)NCCc1ccco1 is listed with 0.972
